Consider 59 molecules from PubChem BioAssay AID2685 (National Center for Advancing Translational Sciences (NCATS), 2010).

One may read the AC50 as the concentration at which the activity in the assay is half-maximal. A higher AC50 goes with activity only at high concentration.

This test can be described thus: qHTS Assay for Lipid Storage Modulators in Drosophila S3 Cells.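 For cell number change: cells counted by Cell Tracker Red CMTPX staining in the red channel.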 The settings on record: BODIPY lipid droplet fluorescence, 18-24 h; for cell number change: measured here: cell count max response, cells fed with added oleic acid. An outline of the steps:
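Laser-scanning cytometry quantifies lipid droplet accumulation (500–530 nm total intensity; droplet/cell object ratio) in oleic acid-fed (400 uM added) Drosophila S3 cells treated with a concentration series. 20 uM Triacsin C defined 100% inhibition.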
(qHTS replaces the single test concentration by a dilution series.)

Setting [1] is: measured here: lipid fluorescence (Fed channel) AC50, cells fed with added oleic acid.
[2] abbreviates: measured here: cell number channel AC50, cells fed with added oleic acid.

SMILES strings stand for the structures. This is one part of the list. Further columns of the screen follow, without active or inactive calls. Most of these compounds were active or inconclusive in the main read-out, so they are no random draw. Potencies come from curve fits of mixed quality, noted in brackets.

`COc1ccccc1CCn1c(N)c(C#N)c2nc3ccccc3nc21`: the concentration at half-maximal activity (AC50) under setting [1] is 1.46 µM [rising, partial curve].

With `COc1cc(/C=N/NC(=O)c2ccncc2)ccc1OCc1cnc(Cl)s1`, the cell number change is 8.6%. The AC50 under setting [2] is 1.64 µM [falling, single point].

Take `C=CCS(=O)(=O)N1CCCC(Cc2ccccc2C)(C(=O)OCC)C1` (stereo not drawn): the cell number change was -1.48%. Take `Cc1cc(NC(=O)c2ccc(Cl)cc2)no1`: the cell number change was -2.68%. Moreover, the AC50 under setting [1] was 13 µM [falling, single point]. On to `CCOC(=O)c1sc2ncn(/N=C/c3ccccn3)c(=O)c2c1C`, for which the cell number change worked out at 74.5%. The half-maximal activity concentration (AC50) under setting [2] is 0.731 µM [rising, full curve]. Moreover, the half-maximal activity concentration (AC50) under setting [1] was 0.326 µM [rising, partial curve]. Take `COc1ccc(/C=C/c2c(-c3ccc(OC)cc3)sc3ccc(N4CCOCC4)cc23)cc1`: the cell number change was 12.6%. In addition, under setting [1], the half-maximal activity concentration (AC50) was 25.9 µM [rising, single point]. Regarding `O=C(CSc1ccc(F)cc1)NCCc1ccc(Cl)cc1`, the cell number change amounted to 35.9%. For the same molecule, the AC50 under setting [2] is 1.46 µM [rising, full curve, poor fit]. In addition, the AC50 under setting [1] was 0.731 µM [rising, partial curve, poor fit]. For the molecule `CCOC(=O)CN1C(=O)C(Sc2n[nH]c(-c3ccc(O)cc3)n2)CCc2ccccc21` (stereo not drawn), the concentration at half-maximal activity (AC50) under setting [1] was 6.51 µM [rising, single point]. For `O=C(/C=C/c1ccccc1)OCCN=C1NS(=O)(=O)c2ccccc21`, the cell number change was -3.95%. Further, the AC50 under setting [1] is 5.62 µM [falling, single point]. Take `CCOc1ccc2nc(-c3ccccc3)nc(SCC(=O)OC)c2c1`: the cell number change is -14.2%. On to `Cc1ccc(CNC(=O)CSc2n[nH]c(N)n2)cc1`, for which the cell number change is 71%. Moreover, the AC50 under setting [2] is 14.6 µM [rising, partial curve]. Also, under setting [1], the AC50 was 16.4 µM [rising, partial curve].

For `CC(=O)COc1cc(C)cc2oc(=O)cc(-c3ccccc3)c12`, the cell number change stood at 38.2%. Moreover, the AC50 under setting [2] was 13 µM [rising, partial curve, poor fit]. `O=C(CN1CCN(c2ccccn2)CC1)Nc1cccc(Br)c1`: the cell number change was -58.1%. Besides, the half-maximal activity concentration (AC50) under setting [2] is 29.1 µM [falling, single point].

Turning to `Cc1ccccc1OCC(=O)Nc1nnc(-c2ccco2)s1`, the cell number change was -18%. Also, the AC50 under setting [1] is 0.13 µM [falling, full curve, poor fit].

In the case of `COc1ccc(/C=C2\N=C(SC)N(c3ccccc3OC)C2=O)cc1`, the cell number change was 11.5%.

Consider `O=C(N/N=C/c1cccnc1)c1cccc(NC(=O)c2ccc(Cl)cc2)c1`, for which the cell number change was 1.74%. Moreover, the AC50 under setting [1] was 6.51 µM [rising, partial curve, poor fit]. In the case of `COc1cc(C2C(C#N)=C(N)OC3=C2C(=O)CC(C)(C)C3)ccc1OCCN1CCOCC1` (stereo not drawn), the cell number change was found to be 18.5%. For the same molecule, the concentration at half-maximal activity (AC50) under setting [1] is 11.6 µM [rising, single point]. `O=S(=O)(NCc1ccccn1)c1cccc2nsnc12`: the cell number change was -0.806%. Further, the AC50 under setting [2] is 0.82 µM [falling, single point]. The half-maximal activity concentration (AC50) under setting [1] is 3.66 µM [falling, single point]. On to `COc1ccc(-n2nc(C(=O)NCC(=O)N3CCN(Cc4ccccc4)CC3)c3ccccc3c2=O)cc1`, for which the AC50 under setting [1] was 0.82 µM [falling, full curve]. With `CCn1c(SCC(=O)N2CCC(C)CC2)nnc1-c1ccc(S(=O)(=O)N2CCN(C)CC2)cc1`, the cell number change was 12.6%.

For `COc1cccc(OC(=O)CSc2nnc(-c3ccccc3Br)o2)c1`, the cell number change is -18.6%. Besides, the AC50 under setting [1] was 29.1 µM [falling, single point]. With `CC1=C(C(=O)Nc2ccccc2)C(c2ccco2)C(C#N)=C(SCC(=O)Nc2cccc(C)c2C)N1` (stereo not drawn), the AC50 under setting [1] was 6.51 µM [rising, single point]. In the case of `Cc1ccc2nc(-c3ccc(NC(=O)C(C)N4C(=O)c5ccccc5C4=O)cc3)sc2c1` (stereo not drawn), the cell number change amounted to 26.6%. The concentration at half-maximal activity (AC50) under setting [1] was 0.58 µM [falling, partial curve]. With `O=C(NCc1cc([N+](=O)[O-])ccc1O)c1cccnc1Sc1ccc(Cl)cc1`, the cell number change was found to be 31.9%. Also, under setting [2], the half-maximal activity concentration (AC50) is 11.6 µM [rising, single point]. As to `C=CCOC(=O)C1=C(C)NC(=O)NC1c1cn(-c2ccccc2)nc1-c1cccs1` (stereo not drawn), the cell number change was 39.3%. The AC50 under setting [2] is 3.66 µM [rising, full curve]. In the case of `COc1ccc(N2CC(C(=O)Nc3ccc4c(c3)OCCO4)CC2=O)cc1` (stereo not drawn), the cell number change is -36.8%. Turning to `CCOc1ccc(C(=O)N[C@H](C(=O)O)C(C)C)cc1`, the cell number change was determined as 15.6%. Moreover, the half-maximal activity concentration (AC50) under setting [1] was 0.103 µM [falling, full curve, poor fit]. `NC(=O)CCCn1c(C(=O)c2cc(Cl)c(N)c(Cl)c2)c2ccc(C(F)(F)F)cc2[n+]1[O-]`: the cell number change was 18.5%. Moreover, the AC50 under setting [1] is 0.116 µM [rising, partial curve, poor fit].

`Cc1nn(-c2ccc(Cl)c(Cl)c2Cl)c(=O)c2ccccc12`: the cell number change was 21.1%. The AC50 under setting [1] was 4.11 µM [rising, single point]. Turning to `CN(CCN1CCOCC1)C(=O)CC1C(=O)NCCN1Cc1ccccc1C(F)(F)F` (stereo not drawn), the cell number change is 1.47%. On the same count and under the same terms, the figure for `COc1ccc(CNC(=O)C2CCCN(S(=O)(=O)c3ccc(Br)s3)C2)cc1` (stereo not drawn) is 7.69%.

For the molecule `COc1ccc(Cn2c(C)cc3c(c2=O)C(c2cccs2)C(C#N)=C(N)O3)cc1OC` (stereo not drawn), the cell number change is 41.5%. For the same molecule, the concentration at half-maximal activity (AC50) under setting [2] was 0.291 µM [rising, full curve]. Besides, the half-maximal activity concentration (AC50) under setting [1] is 1.64 µM [rising, partial curve]. Regarding `CCCCN(C)CCN1C(=O)C2C(C(=O)Nc3ccc(OC)cc3)C3C=CC2(O3)C1C(=O)NC1CCCCC1` (stereo not drawn), the cell number change stood at 15.2%. The AC50 under setting [1] was 0.206 µM [falling, single point].

Turning to `O=C(CN1CCCCCC1)Nc1c(Cl)cc(Cl)cc1Cl`, the cell number change is 1.17%.

Consider `CC(C)C(=O)Nc1ccc(C(=O)N/N=C/c2cc(Br)cc(Br)c2O)cc1`, for which the cell number change was -62.3%. Besides, the AC50 under setting [2] is 8.2 µM [falling, partial curve]. Moreover, under setting [1], the AC50 was 9.2 µM [falling, partial curve].

Consider `COc1ccc(NC(=O)CN(Cc2ccco2)Cc2ccco2)cc1S(=O)(=O)N1CCCCC1`, for which the cell number change stood at 13.7%. For the same molecule, under setting [1], the AC50 is 0.013 µM [rising, partial curve, poor fit].

Take `COc1cc(C(C(=O)NCc2ccccc2)N(Cc2ccco2)C(=O)c2cnccn2)cc(OC)c1OC` (stereo not drawn): the cell number change is -49.3%. Further, the AC50 under setting [2] was 4.61 µM [falling, single point]. Further, the AC50 under setting [1] was 5.17 µM [rising, single point]. On to `O=C(COC(=O)CCc1ccccc1)NC12CC3CC(CC(C3)C1)C2`, for which the cell number change was -13.5%. Besides, the concentration at half-maximal activity (AC50) under setting [1] is 3.66 µM [falling, single point]. `COc1ccccc1C(=O)NCCC(=O)N1CCN(S(=O)(=O)c2cccc(Cl)c2)CC1`: the cell number change was -0.648%. Moreover, under setting [1], the AC50 was 0.0326 µM [falling, full curve, poor fit]. Consider `COc1ccc(N2CCN(C(C)C(=O)N3CC(C)OC(C)C3)CC2)cc1` (stereo not drawn), for which the cell number change was -27.1%. Besides, the AC50 under setting [1] was 23.1 µM [falling, single point]. `CCc1ccc(NC(=O)COc2ccc(Br)cn2)cc1`: the AC50 under setting [1] is 0.00461 µM [falling, full curve, poor fit]. With `NC(=O)c1sc2nc3c(c(-c4ccco4)c2c1N)CCC3`, the AC50 under setting [2] was 5.8 µM [rising, single point]. On to `CN(Cc1ccccc1)c1nc(CN2CCOCC2)nc2scc(-c3ccccc3)c12`, for which the cell number change is 12.5%. For the same molecule, the concentration at half-maximal activity (AC50) under setting [2] was 3.26 µM [rising, single point]. On to `CCSCc1nnc(SCC(=O)Nc2cccc(SC)c2)n1C`, for which the cell number change turned out to be 1.57%. In addition, under setting [2], the AC50 was 6.51 µM [falling, single point]. The AC50 under setting [1] is 29.1 µM [falling, single point].

`CNS(=O)(=O)c1cccc(C(=O)OCc2cc(=O)n3cc(Br)ccc3n2)c1`: the cell number change was 8.62%. Besides, under setting [1], the concentration at half-maximal activity (AC50) is 7.31 µM [rising, partial curve, poor fit]. On to `CSc1nc2[nH]c3c(c2c2ncnn12)CCCC3`, for which the half-maximal activity concentration (AC50) was 1.46 µM [rising, partial curve] under setting [2] and 1.3 µM [rising, full curve] under setting [1]. For the molecule `COc1ccc(C2=NS(=O)(=O)N(C)C(C(=O)NCc3cccs3)=C2)cc1OC`, the cell number change is -17%. Also, the concentration at half-maximal activity (AC50) under setting [1] was 32.6 µM [falling, single point].

Consider `Cc1ccc(C(=O)c2cc3ccccc3o2)cc1C`, for which the cell number change is 105%. For the same molecule, the AC50 under setting [2] was 18.4 µM [rising, partial curve]. Under setting [1], the AC50 is 18.4 µM [rising, partial curve]. Regarding `COc1ccc(S(=O)(=O)NC2CC(=O)N(c3ccc4c(c3)OCCO4)C2)cc1` (stereo not drawn), the cell number change was 32.7%. The half-maximal activity concentration (AC50) under setting [2] is 23.1 µM [rising, single point]. `CSc1nnc(C2CCCN(CC(=O)Nc3ccccc3N3CCOCC3)C2)n1C(C)C` (stereo not drawn): the cell number change was -19.3%. For the same molecule, the concentration at half-maximal activity (AC50) under setting [1] is 0.206 µM [rising, single point]. With `CCc1ccccc1NC(=O)NCCN1CCCCC1`, the cell number change came to 14.3%. In addition, the concentration at half-maximal activity (AC50) under setting [1] is 29.1 µM [rising, partial curve, poor fit].

As for `Cc1cccc(N2CCN(C(=O)CCC(=O)N3CC(C)Oc4ccc(C)cc43)CC2C)c1` (stereo not drawn), the cell number change was determined as 7.49%. Moreover, under setting [1], the AC50 was 9.2 µM [falling, partial curve, poor fit]. Take `CCN1C(=O)c2cccc3c(S(=O)(=O)Nc4ccccc4)ccc1c23`: the cell number change is -25.6%. In addition, the AC50 under setting [1] is 0.164 µM [falling, full curve, poor fit]. Turning to `CN(c1ccc(OCC(=O)Nc2nc3ccccc3s2)cc1)S(=O)(=O)c1ccccc1`, the cell number change was -16.5%. Besides, the AC50 under setting [1] was 16.4 µM [falling, single point]. Consider `Cc1ccc(-c2nnn(CC(=O)N(CC(=O)NC3CCCC3)c3ccc(F)cc3)n2)o1`, for which the cell number change is -15.8%. `O=C(Nc1cc(Cl)cc(Cl)c1)C(c1ccccc1)N1CCCCC1` (stereo not drawn): the cell number change was found to be 8.8%. Further, under setting [2], the AC50 is 1.84 µM [rising, partial curve]. Also, the AC50 under setting [1] was 2.06 µM [rising, partial curve]. As for `Cc1cc(-n2c(C)cc(C(=O)CCl)c2C)no1`, the cell number change was -61.8%. In the case of `CCCn1nc(C(=O)NCC2COc3ccccc3O2)c2ccccc2c1=O` (stereo not drawn), the cell number change is -14.6%. Under setting [1], the concentration at half-maximal activity (AC50) is 0.103 µM [falling, full curve, poor fit].

As for `O=C1NC(=O)/C(=C\c2ccc(Oc3cnccn3)cc2)S1`, the cell number change was found to be 60.3%. The AC50 under setting [2] is 20.6 µM [rising, single point]. In addition, under setting [1], the concentration at half-maximal activity (AC50) is 0.82 µM [rising, full curve].
